Tests used:
Aspergillus niger [1] = assay: Antifungal activity against Aspergillus niger MTCC 281 at 50 ug/ml after 24 hrs by disc diffusion method; assay type: functional
Aspergillus niger [2] = assay: Antifungal activity against Aspergillus niger MTCC 281 at 100 ug/ml after 24 hrs by disc diffusion method; assay type: functional

**Q.** How did the inhibition zone (IZ) (Aspergillus niger [1]) turn out when NYSTATIN was run?
**A.** 10 mm

**Q.** And the inhibition zone (IZ) (Aspergillus niger [2])?
**A.** 20 mm
